These are yes or no findings as the source states them, for the method shown. A result given as binding can be weak or reduced; the word gives no strength. Where a sequence is shown, tags or fusion partners need not be part of it.
Target: T1, ANK6 (amino acid residues 21-174) fused to the GAL4 DNA-binding domain (Arabidopsis thaliana) (UniProt Q9FNP4)
T1 sequence: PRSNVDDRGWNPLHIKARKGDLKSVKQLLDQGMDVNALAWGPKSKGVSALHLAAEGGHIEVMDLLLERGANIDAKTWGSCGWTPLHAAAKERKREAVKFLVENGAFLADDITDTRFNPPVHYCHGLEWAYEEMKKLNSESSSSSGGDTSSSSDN
Test: two-hybrid; directed test; AH109 cotransformed with pGADT7 (RPS9M CDS and truncated variants) and pGBKT7 (ANK6) constructs; growth on SD-LWHA, 30°C, 2-3 days

binding: binds
Substance: C-terminus Ribosomal_S9 domain of RPS9M fused to the GAL4 activation domain (Arabidopsis thaliana) (domain or fragment)

From PMC5744018
